Measurements reported in PubChem BioAssay AID1259308 (NCATS, 2017)
Screen: 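Genes whose loss raises luciferase production in HEK293 cells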 (primary screen). Cells: human HEK293 embryonic kidney cells stably expressing firefly luciferase (HEK-CMV-Luc2-Hygro). Reagents: single siRNA against human genes, 0.8 pmol siRNA per well. Time to read-out: 72 h. Read-out: 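Luciferase light (ONE-Glo) measured on one replicate plate set and viability (CellTiter-Glo) on the other, scaled to a negative control siRNA, with robust z-scores and luciferase per cell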. Direction: total luciferase, z-score and total luciferase, % of control: higher = more reporter protein produced. Rule for the call: 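An siRNA counts as active if its total luciferase robust z-score exceeds 3; genes with two or more such siRNAs out of three were retested with fresh siRNAs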. Calls: active = raised luciferase; inactive = no rise.
Shown is one part, drawn at random, of about 59,000 reagents tested. In the full data, about 1,510 (2.6%) are marked active. 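Calls use total luciferase alone and ignore viability, so some active siRNAs may act by altering cell number.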 Unmarked entries are inactive. Reagents against one gene are numbered here. Further read-outs or replicates are left out here. No sequences are given here.

| gene | reagent | total luciferase, z-score | total luciferase, % of control |
| --- | --- | --- | --- |
| TUBE1 | 1 | -0.466 | 72.6 |
| TUBE1 | 2 | -1.06 | 60.8 |
| TUBE1 | 3 | -0.41 | 73.7 |
| OR14K1 | 1 | -0.32 | 75.5 |
| OR14K1 | 2 | -1.07 | 60.6 |
| OR14K1 | 3 | 0.715 | 96.1 |
| PRSS22 | 1 | 0.411 | 90.1 |
| PRSS22 | 2 | 0.795 | 97.7 |
| PRSS22 | 3 | -0.5 | 72 |
| RHBDL1 | 1 | 0.0359 | 82.6 |
| RHBDL1 | 2 | -0.985 | 62.3 |
| RHBDL1 | 3 | -0.748 | 67 |
| LPAR3 | 1 | -0.542 | 71.1 |
| LPAR3 | 2 | -1.43 | 53.4 |
| LPAR3 | 3 | -0.821 | 65.6 |
| GNG3 | 1 | -0.00827 | 81.7 |
| GNG3 | 2 | -0.19 | 78.1 |
| GNG3 | 3 | 0.648 | 94.8 |
| HMGCLL1 | 1 | -0.291 | 76.1 |
| HMGCLL1 | 2 | 3.89 (active) | 159 |
| HMGCLL1 | 3 | 0.588 | 93.6 |
| NR1H4 | 1 | -1.67 | 48.8 |
| NR1H4 | 2 | -0.783 | 66.3 |
| NR1H4 | 3 | -0.516 | 71.6 |
| OTOG | 1 | -0.563 | 70.7 |
| OTOG | 2 | 1.05 | 103 |
| OTOG | 3 | 0.232 | 86.5 |
| WNT8B | 1 | -2.28 | 36.5 |
| WNT8B | 2 | -0.00714 | 81.7 |
| WNT8B | 3 | 3.06 (active) | 143 |
| CASP5 | 1 | -1.21 | 57.9 |
| CASP5 | 2 | -0.873 | 64.5 |
| CASP5 | 3 | -0.989 | 62.2 |
| LRRC78P | 1 | 2.37 | 129 |
| LRRC78P | 2 | 0.762 | 97 |
| LRRC78P | 3 | 0.868 | 99.2 |
| SMG5 | 1 | -0.518 | 71.6 |
| SMG5 | 2 | -0.103 | 79.8 |
| SMG5 | 3 | 1.15 | 105 |
| FOXP1 | 1 | 1.34 | 109 |
| FOXP1 | 2 | 0.31 | 88.1 |
| FOXP1 | 3 | 0.923 | 100 |
| ANKRD20A3P | 1 | -0.193 | 78 |
| ANKRD20A3P | 2 | 1.73 | 116 |
| ANKRD20A3P | 3 | 0.257 | 87 |
| TMEM105 | 1 | 0.788 | 97.6 |
| TMEM105 | 2 | -0.818 | 65.6 |
| TMEM105 | 3 | 0.512 | 92.1 |
| CCM2L | 1 | -0.989 | 62.2 |
| CCM2L | 2 | 1.58 | 113 |
| CCM2L | 3 | 0.698 | 95.8 |
| IQCE | 1 | 0.73 | 96.4 |
| IQCE | 2 | 1.9 | 120 |
| IQCE | 3 | -0.81 | 65.8 |
| ABHD5 | 1 | -0.164 | 78.6 |
| ABHD5 | 2 | -0.0881 | 80.1 |
| ABHD5 | 3 | -1.39 | 54.3 |

Not a retest: an excerpt of the list.
| gene | reagent | total luciferase, z-score | total luciferase, % of control |
| --- | --- | --- | --- |
| FOXP1 | 3 | 0.923 | 100 |
| ANKRD20A3P | 1 | -0.193 | 78 |
| ANKRD20A3P | 2 | 1.73 | 116 |
| ANKRD20A3P | 3 | 0.257 | 87 |
| TMEM105 | 1 | 0.788 | 97.6 |
| TMEM105 | 2 | -0.818 | 65.6 |
| TMEM105 | 3 | 0.512 | 92.1 |
| CCM2L | 1 | -0.989 | 62.2 |
